Record: PubChem BioAssay AID1053209 (Peter MacCallum Cancer Centre, 2014)
Screen: 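Gene losses that combine with doxorubicin to kill mouse bone cancer cells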 (follow-up of hits). Cells: mouse primary osteosarcoma cells. Reagent: single siRNA against mouse genes, 25 nM (text also states 40 nM). Time to read-out: about 120 h (48 h before drug, then 72 h with drug). Conditions: doxorubicin 100 nM (about IC30-40), added 48 h after transfection, for 72 h. Detection: 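Viability measured by ATP luminescence with and without doxorubicin, each replicate scaled to non-targeting siRNA NT1, averaged over two replicates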. Direction: viability with doxorubicin, vs NT1: higher = more viable cells under doxorubicin; viability without drug, vs NT1: higher = more viable cells without drug. Rule for the call: 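Counted as active (class LC dox) if viability falls to 0.7 of NT1 or below under doxorubicin but stays within 0.7 to 1.1 without drug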.
Here is a random part of about 1,580 reagents tested. 207 of them (13%) count as active. 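Rows are single siRNAs; four siRNAs per gene were tested, a gene counting as confirmed only when at least two agree.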 Unmarked entries are inactive. Reagents against one gene are numbered here. Further read-outs or replicates are left out here.

| gene | siRNA no. | combined effect class | viability with doxorubicin, vs NT1 | viability without drug, vs NT1 |
| --- | --- | --- | --- | --- |
| Copg1 | 1 | low viability with and without drug | 0.44 | 0.7 |
| Copg1 | 2 | low viability only with doxorubicin; normal without drug (active) | 0.6 | 0.88 |
| Copg1 | 3 | low viability only with doxorubicin; normal without drug (active) | 0.33 | 0.71 |
| Copg1 | 4 | low viability only with doxorubicin; normal without drug (active) | 0.6 | 0.81 |
| Rcor3 | 1 | normal viability with and without drug | 1.01 | 1 |
| Rcor3 | 2 | low viability only with doxorubicin; normal without drug (active) | 0.66 | 0.91 |
| Rcor3 | 3 | normal viability with and without drug | 1.09 | 0.92 |
| Rcor3 | 4 | normal viability with and without drug | 1.08 | 0.98 |
| Slc35b3 | 1 | normal viability with and without drug | 1.04 | 1.04 |
| Slc35b3 | 2 | normal viability with and without drug | 0.8 | 0.94 |
| Slc35b3 | 3 | normal viability with and without drug | 1 | 1.04 |
| Slc35b3 | 4 | normal viability with and without drug | 0.96 | 1.02 |
| Snu13 | 1 | low viability with and without drug | 0.15 | 0.48 |
| Snu13 | 2 | normal viability with and without drug | 1.03 | 0.91 |
| Snu13 | 3 | normal viability with and without drug | 1 | 1 |
| Snu13 | 4 | low viability with and without drug | 0.08 | 0.28 |
| Rpl9 | 1 | low viability with and without drug | 0.32 | 0.31 |
| Rpl9 | 2 | low viability with and without drug | 0.24 | 0.37 |
| Rpl9 | 3 | low viability with and without drug | 0.24 | 0.2 |
| Rpl9 | 4 | low viability with and without drug | 0.25 | 0.33 |
| Il12rb2 | 1 | normal viability with and without drug | 1.04 | 0.99 |
| Il12rb2 | 2 | normal viability with and without drug | 0.88 | 0.97 |
| Il12rb2 | 3 | normal viability with and without drug | 1.08 | 0.92 |
| Il12rb2 | 4 | normal viability with and without drug | 1.02 | 1.04 |
| Tbc1d10b | 1 | normal viability with and without drug | 0.98 | 1.04 |
| Tbc1d10b | 2 | normal viability with and without drug | 1.09 | 1.08 |
| Tbc1d10b | 3 | low viability only with doxorubicin; normal without drug (active) | 0.68 | 0.85 |
| Tbc1d10b | 4 | low viability only with doxorubicin; normal without drug (active) | 0.64 | 0.82 |
| Txndc15 | 1 | normal viability with and without drug | 0.98 | 0.92 |
| Txndc15 | 2 | normal viability with and without drug | 0.95 | 0.97 |
| Txndc15 | 3 | normal viability with and without drug | 0.86 | 0.93 |
| Txndc15 | 4 | normal viability with and without drug | 0.88 | 0.88 |
| Bak1 | 1 | high viability only with doxorubicin | 1.12 | 0.97 |
| Bak1 | 2 | normal viability with and without drug | 0.9 | 0.93 |
| Bak1 | 3 | normal viability with and without drug | 1.04 | 0.97 |
| Bak1 | 4 | high viability only with doxorubicin | 1.16 | 0.98 |
| Eif3f | 1 | low viability only with doxorubicin; normal without drug (active) | 0.39 | 0.82 |
| Eif3f | 2 | low viability with and without drug | 0.57 | 0.67 |
| Eif3f | 3 | low viability with and without drug | 0.57 | 0.54 |
| Eif3f | 4 | low viability only with doxorubicin; normal without drug (active) | 0.39 | 0.76 |
| Ube2i | 1 | normal viability with and without drug | 0.73 | 0.87 |
| Ube2i | 2 | low viability with and without drug | 0.41 | 0.58 |
| Ube2i | 3 | low viability only with doxorubicin; normal without drug (active) | 0.6 | 0.86 |
| Ube2i | 4 | low viability with and without drug | 0.46 | 0.64 |
| Top2a | 1 | high viability only with doxorubicin | 1.29 | 1 |
| Top2a | 2 | normal viability with and without drug | 1.02 | 1.01 |
| Top2a | 3 | high viability only with doxorubicin | 1.15 | 0.88 |
| Top2a | 4 | high viability only with doxorubicin | 1.21 | 0.84 |
| Mib2 | 1 | normal viability with and without drug | 0.94 | 1.03 |
| Mib2 | 2 | normal viability with and without drug | 1.07 | 1.06 |
| Mib2 | 3 | high viability only without drug | 0.98 | 1.12 |
| Mib2 | 4 | normal viability with and without drug | 0.74 | 0.98 |
| Plk1 | 1 | low viability only with doxorubicin; normal without drug (active) | 0.51 | 0.72 |
| Plk1 | 2 | normal viability with and without drug | 0.72 | 0.81 |
| Plk1 | 3 | low viability with and without drug | 0.7 | 0.7 |
| Plk1 | 4 | low viability with and without drug | 0.57 | 0.69 |
| Nxf1 | 1 | normal viability with and without drug | 0.76 | 0.96 |
| Nxf1 | 2 | low viability with and without drug | 0.23 | 0.65 |
| Nxf1 | 3 | low viability with and without drug | 0.16 | 0.61 |
| Nxf1 | 4 | low viability with and without drug | 0.11 | 0.55 |

4 of these entries, reformatted:
gene,siRNA no.,combined effect class,"viability with doxorubicin, vs NT1","viability without drug, vs NT1"
Tbc1d10b,3,low viability only with doxorubicin; normal without drug (active),0.68,0.85
Tbc1d10b,4,low viability only with doxorubicin; normal without drug (active),0.64,0.82
Txndc15,1,normal viability with and without drug,0.98,0.92
Txndc15,2,normal viability with and without drug,0.95,0.97
